Reference: patent US11044910B2, “Mesoionic insecticides” (priority 2017, dated 2021)
Some of these results come from one statement about several compounds together.

Legend:
[1] = test system: diamondback moth (Plutella xylostella (L.)); assay: Test A: control of diamondback moth, foliar spray on mustard plant; format: in vivo; conditions: neonate larvae, assessed after 6 days, very good to excellent control
[2] = test system: fall armyworm (Spodoptera frugiperda (J. E. Smith)); assay: Test B: control of fall armyworm, foliar spray on corn plant; format: in vivo; conditions: 1-day-old larvae, assessed after 6 days, very good to excellent control

Row | SMILES | control efficacy: feeding damage (40% or less feeding damage and/or 100% mortality) ([1]; sprayed at 50 ppm) [%] | control efficacy: feeding damage (40% or less feeding damage and/or 100% mortality) ([1]; sprayed at 250 ppm) [%] | control efficacy: feeding damage (40% or less feeding damage and/or 100% mortality) ([2]; sprayed at 250 ppm) [%] | control efficacy: feeding damage (40% or less feeding damage and/or 100% mortality) ([2]; sprayed at 50 ppm) [%]
1 | N#Cc1cc(F)c(C(=O)c2c([O-])n3ccccc3[n+]2Cc2cnc(Br)s2)c(F)c1 [Compound 119] | ≤ 40 | ≤ 40 | ≤ 40 | 
2 | O=C(c1cc(F)cc(F)c1)c1c([O-])n2ccccc2[n+]1Cc1cnc(Cl)s1 [Compound 47] | ≤ 40 | ≤ 40 | ≤ 40 | 
3 | O=C(c1ccc(Cl)cc1F)c1c([O-])n2ccccc2[n+]1Cc1cnc(Cl)s1 [Compound 71] | ≤ 40 | ≤ 40 | ≤ 40 | 
4 | N#Cc1ccc(C(=O)c2c([O-])n3ccccc3[n+]2Cc2cnc(Cl)s2)c(F)c1 [Compound 91] | ≤ 40 | ≤ 40 | ≤ 40 | 
5 | COc1ccc(Br)cc1C(=O)c1c([O-])n2ccccc2[n+]1Cc1cnc(Cl)s1 [Compound 67] | ≤ 40 | ≤ 40 | ≤ 40 | 
6 | O=C(c1ccc2cnccc2c1)c1c([O-])n2ccccc2[n+]1Cc1cnc(Cl)s1 [Compound 95] |  | ≤ 40 | ≤ 40 | 
7 | O=C(c1ccc(OCc2ccccc2)cc1)c1c([O-])n2ccccc2[n+]1Cc1cnc(Cl)s1 [Compound 8] |  | ≤ 40 | ≤ 40 | ≤ 40
8 | O=C(c1cc(C(F)(F)F)cc(Cl)c1F)c1c([O-])n2ccccc2[n+]1Cc1cnc(Cl)s1 [Compound 121] | ≤ 40 | ≤ 40 | ≤ 40 | ≤ 40
9 | O=C(c1ccc(SC(F)(F)F)cc1)c1c([O-])n2ccccc2[n+]1Cc1cnc(Cl)s1 [Compound 24] |  | ≤ 40 | ≤ 40 | 
10 | O=C(c1ccc(OC(F)(F)F)cc1)c1c([O-])n2ccccc2[n+]1Cc1cnc(Cl)s1 [Compound 35] | ≤ 40 | ≤ 40 | ≤ 40 | 
11 | O=C(c1c(F)cc(Cl)cc1Cl)c1c([O-])n2ccccc2[n+]1Cc1cnc(Cl)s1 [Compound 96] | ≤ 40 | ≤ 40 | ≤ 40 | ≤ 40
12 | O=C(c1cc(F)cc(OC(F)(F)F)c1)c1c([O-])n2ccccc2[n+]1Cc1cnc(Cl)s1 [Compound 58] | ≤ 40 | ≤ 40 | ≤ 40 | 
13 | O=C(c1cc(OC(F)(F)F)ccc1F)c1c([O-])n2ccccc2[n+]1Cc1cnc(Cl)s1 [Compound 56] | ≤ 40 | ≤ 40 | ≤ 40 | 
14 | O=C(c1cccc(F)c1F)c1c([O-])n2ccccc2[n+]1Cc1cnc(Cl)s1 [Compound 43] | ≤ 40 | ≤ 40 | ≤ 40 | 
15 | O=C(c1c(F)cc(F)cc1F)c1c([O-])n2ccccc2[n+]1Cc1cnc(Br)s1 [Compound 122] | ≤ 40 | ≤ 40 | ≤ 40 | ≤ 40
16 | O=C(c1ccc(Br)cc1Cl)c1c([O-])n2ccccc2[n+]1Cc1cnc(Cl)s1 [Compound 57] | ≤ 40 | ≤ 40 | ≤ 40 | ≤ 40
17 | O=C(c1ccc(OCCc2ccccc2)cc1)c1c([O-])n2ccccc2[n+]1Cc1cnc(Cl)s1 [Compound 60] | ≤ 40 | ≤ 40 |  | 
18 | O=C(Cn1cnc(Cl)n1)c1c([O-])n2ccccc2[n+]1Cc1cnc(Cl)s1 [Compound 101] | ≤ 40 | ≤ 40 |  | 
19 | O=C(c1cccc(OCc2ccccc2)c1)c1c([O-])n2ccccc2[n+]1Cc1cnc(Cl)s1 [Compound 9] | ≤ 40 | ≤ 40 |  | 
20 | O=C(c1ccccn1)c1c([O-])n2ccccc2[n+]1Cc1cnc(Cl)s1 [Compound 39] |  | ≤ 40 |  | 
21 | O=C(c1cc(F)c(F)c(F)c1F)c1c([O-])n2ccccc2[n+]1Cc1cnc(Cl)s1 [Compound 78] |  | ≤ 40 |  | 
